These results are taken from publication PMC6899017.

Chains of the proteins cited; added tags and fusions are not shown. Lines headed by an entry give the natural chain unless they say otherwise; changes in a name come on top.
UniProt P14904: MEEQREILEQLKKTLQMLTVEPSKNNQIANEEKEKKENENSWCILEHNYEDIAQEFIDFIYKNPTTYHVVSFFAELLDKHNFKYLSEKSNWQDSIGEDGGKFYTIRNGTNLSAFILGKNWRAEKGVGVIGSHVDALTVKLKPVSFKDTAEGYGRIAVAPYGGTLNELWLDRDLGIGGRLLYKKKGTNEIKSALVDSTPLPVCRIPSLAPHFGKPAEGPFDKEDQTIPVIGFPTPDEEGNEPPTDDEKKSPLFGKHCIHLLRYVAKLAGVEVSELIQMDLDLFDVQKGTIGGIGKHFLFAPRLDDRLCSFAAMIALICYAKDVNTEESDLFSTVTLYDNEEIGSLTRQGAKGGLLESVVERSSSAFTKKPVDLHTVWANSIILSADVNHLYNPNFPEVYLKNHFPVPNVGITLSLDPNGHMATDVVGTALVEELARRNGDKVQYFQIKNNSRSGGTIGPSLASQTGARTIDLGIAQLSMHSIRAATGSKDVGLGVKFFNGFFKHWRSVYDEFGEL

The target in the assay is BFP–Ape1 (S. cerevisiae) (UniProt P14904). The assay is described as follows: ectopic recruitment to Ape1 oligomers (live-cell fluorescence microscopy); atg19Δvac8Δ cells with BFP–Ape1 and t-Vac8ΔN–GFP on plasmids; 1 h starvation in SD-N; GFP signal read against mTagBFP2–Ape1 puncta; punctum lost in ape1Δ cells.

Results are given in words; binding and its absence hold for the method and conditions named. Binding can be weak; no strength is given. Tags and fused reporters may be left off the sequences shown.

B1: t-Vac8ΔN–GFP [Atg19(152-191)–Vac8(19-578)–GFP] (protein, UniProt P35193 152-191; P39968 19-578)
chain: NVVVSRECLDNFMKQLLKLEESLNKLELEQKVTNKEPNHRPIADNEREAVTLLLGYLEDKDQLDFYSGGPLKALTTLVYSDNLNLQRSAALAFAEITEKYVRQVSREVLEPILILLQSQDPQIQVAACAALGNLAVNNENKLLIVEMGGLEPLINQMMGDNVEVQCNAVGCITNLATRDDNKHKIATSGALIPLTKLAKSKHIRVQRNATGALLNMTHSEENRKELVNAGAVPVLVSLLSSTDPDVQYYCTTALSNIAVDEANRKKLAQTEPRLVSKLVSLMDSPSSRVKCQATLALRNLASDTSYQLEIVRAGGLPHLVKLIQSDSIPLVLASVACIRNISIHPLNEGLIVDAGFLKPLVRLLDYKDSEEIQCHAVSTLRNLAASSEKNRKEFFESGAVEKCKELALDSPVSVQSEISACFAILALADVSKLDLLEANILDALIPMTFSQNQEVSGNAAAALANLCSRVNNYTKIIEAWDRPNEGIRGFLIRFLKSDYATFEHIALWTILQLLESHNDKVEDLVKNDDDIINGVRKMADVTFERLQRSGIDVKNPGSNNNPSSNDNNSNNNDTGSEHQPVEDASLELYNITQQILQFLH
On to B1, for which the binding result was “binds”.
